This is an account of results in article doi:10.1101/2022.02.08.479616.

Results are given in words; binding and its absence hold for the method and conditions named. In cells and extracts the contact can be indirect. Tags and fused reporters may be left off the sequences shown.

In experiment [1] the target is T1, ORANGE (OR), split-YFP fusion for BiFC (Arabidopsis thaliana) (UniProt Q9FKF4).
T1 sequence: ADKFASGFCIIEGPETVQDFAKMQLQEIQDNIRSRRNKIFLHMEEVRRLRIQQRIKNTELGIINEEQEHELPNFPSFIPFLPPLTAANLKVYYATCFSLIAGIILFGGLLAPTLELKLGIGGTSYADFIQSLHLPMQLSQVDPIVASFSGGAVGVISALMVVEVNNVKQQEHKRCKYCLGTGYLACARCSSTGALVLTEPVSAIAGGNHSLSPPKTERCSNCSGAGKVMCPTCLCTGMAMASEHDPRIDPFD
The experiment is described as follows: split reporter.

Experiment [2] has as its target T2, OR-Like (ORL), split-YFP fusion for BiFC (Arabidopsis thaliana) (UniProt Q8VYD8).
T2 sequence: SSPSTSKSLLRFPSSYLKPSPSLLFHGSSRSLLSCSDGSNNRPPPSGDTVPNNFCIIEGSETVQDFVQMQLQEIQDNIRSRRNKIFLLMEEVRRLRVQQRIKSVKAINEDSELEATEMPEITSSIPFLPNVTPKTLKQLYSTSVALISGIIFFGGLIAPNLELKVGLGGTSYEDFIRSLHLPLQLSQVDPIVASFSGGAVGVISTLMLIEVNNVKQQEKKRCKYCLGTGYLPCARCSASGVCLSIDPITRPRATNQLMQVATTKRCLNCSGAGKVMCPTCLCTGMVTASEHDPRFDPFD
As to the kind of experiment: split reporter.

B1: GENOMES UNCOUPLED 4 (GUN4), split-YFP fusion for BiFC (protein, UniProt Q9LX31 70-265)
chain: ASATTAETATIFDVLENHLVNQNFRQADEETRRLLIQISGEAAVKRGYVFFSEVKTISPEDLQAIDNLWIKHSDGRFGYSVQRKIWLKVKKDFTRFFVKVEWMKLLDTEVVQYNYRAFPDEFKWELNDETPLGHLPLTNALRGTQLLKCVLSHPAFATADDNSGETEDELNRGVAVAKEQAGVGADKRVFKTNYSF
On to B1, for which the binding entry in experiment [1] and in experiment [2] was “no binding” each time.

B2: MgPMME cyclase 1 (CRD1), split-YFP fusion for BiFC (protein, UniProt Q9M591 37-409)
chain: MSASSSPPPPTTATSKSKKGTKKEIQESLLTPRFYTTDFEEMEQLFNTEINKNLNEAEFEALLQEFKTDYNQTHFVRNKEFKEAADKLQGPLRQIFVEFLERSCTAEFSGFLLYKELGRRLKKTNPVVAEIFSLMSRDEARHAGFLNKGLSDFNLALDLGFLTKARKYTFFKPKFIFYATYLSEKIGYWRYITIYRHLKENPEFQCYPIFKYFENWCQDENRHGDFFSALMKAQPQFLNDWQAKLWSRFFCLSVYVTMYLNDCQRTNFYEGIGLNTKEFDMHVIIETNRTTARIFPAVLDVENPEFKRKLDRMVVSYEKLLAIGETDDASFIKTLKRIPLVTSLASEILAAYLMPPVESGSVDFAEFEPNLVY
As to B2, the binding result in experiment [1] and in experiment [2] was “no binding” throughout.

B3: Pchlide oxidoreductase B (PORB), split-YFP fusion for BiFC (protein, UniProt P21218 67-401)
chain: QTAATSSPTVTKSVDGKKTLRKGNVVVTGASSGLGLATAKALAETGKWNVIMACRDFLKAERAAKSVGMPKDSYTVMHLDLASLDSVRQFVDNFRRTETPLDVLVCNAAVYFPTAKEPTYSAEGFELSVATNHLGHFLLARLLLDDLKKSDYPSKRLIIVGSITGNTNTLAGNVPPKANLGDLRGLAGGLNGLNSSAMIDGGDFDGAKAYKDSKVCNMLTMQEFHRRFHEETGVTFASLYPGCIASTGLFREHIPLFRALFPPFQKYITKGYVSETESGKRLAQVVSDPSLTKSGVYWSWNNASASFENQLSEEASDVEKARKVWEISEKLVGLA
For the molecule B3, the binding entry in experiment [1] and in experiment [2] was “no binding” each time.

B4: MgProtoIX methyltransferase (CHLM), split-YFP fusion for BiFC (protein, UniProt Q9SW18 40-312)
chain: AASVTDLAGVDSTTIAVLGGGSVAALAAMVSLTDPERRRKLQAEEVGGGDKEVVREYFNSTGFERWRKIYGETDEVNRVQKDIRLGHAKTVENTMLMLTEDRSLAGVTVCDAGCGTGLLSIPLAKEGAIVSASDISAAMVAEAEMKAKAQLPSENLPKFEVNDLESLTGKYDTVVCLDVLIHYPQNKADGMIAHLASLAEKRVILSFAPKTFYYDILKRIGELFPGPSKATRAYLHSEADVERALGKVGWKISKRGLTTTQFYFSRLIEAVPM
For B4, the binding result in experiment [1] and in experiment [2] was “no binding” in each case.
